Results are given in words; binding and its absence hold for the method and conditions named. Binding seen in cells or lysates may run through a third protein. Some results given as binding are weak or reduced against the parent protein; the word gives no strength. Sequences can lack the tags named with a protein.
Target: T1, MAGED2-Myc (UniProt Q9UNF1)
T1 sequence: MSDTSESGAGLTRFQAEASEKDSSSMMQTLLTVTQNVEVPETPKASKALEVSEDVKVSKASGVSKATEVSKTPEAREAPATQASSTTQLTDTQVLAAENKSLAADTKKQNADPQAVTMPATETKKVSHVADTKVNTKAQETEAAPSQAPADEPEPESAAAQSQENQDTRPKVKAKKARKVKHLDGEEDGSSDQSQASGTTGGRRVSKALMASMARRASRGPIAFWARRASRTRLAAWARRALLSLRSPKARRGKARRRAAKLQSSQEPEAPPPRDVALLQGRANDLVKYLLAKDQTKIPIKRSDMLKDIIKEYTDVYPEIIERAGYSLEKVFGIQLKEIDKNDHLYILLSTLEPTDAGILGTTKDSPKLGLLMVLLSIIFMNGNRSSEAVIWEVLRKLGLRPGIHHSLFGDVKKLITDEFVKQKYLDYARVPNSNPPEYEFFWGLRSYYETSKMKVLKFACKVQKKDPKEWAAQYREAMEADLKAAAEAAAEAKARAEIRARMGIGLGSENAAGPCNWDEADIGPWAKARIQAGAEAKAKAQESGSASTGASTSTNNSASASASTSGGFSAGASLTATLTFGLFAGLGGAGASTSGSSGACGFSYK
Assay: co-IP; HeLa cells transiently transfected with Gαs-HA alone or with MAGED2-Myc; lysed in TNTE buffer (20 mM Tris-HCl pH 7.4, 150 mM NaCl, 5 mM EDTA, 0.5% Triton X-100, 10% glycerol); IP with anti-Myc antibody crosslinked (BS3) to protein G magnetic beads, 1 h at room temperature; washed three times in PBS; immunoblot

Sequences of proteins named here, by UniProt entry; tags and fusion partners are left off.
UniProt Q00987: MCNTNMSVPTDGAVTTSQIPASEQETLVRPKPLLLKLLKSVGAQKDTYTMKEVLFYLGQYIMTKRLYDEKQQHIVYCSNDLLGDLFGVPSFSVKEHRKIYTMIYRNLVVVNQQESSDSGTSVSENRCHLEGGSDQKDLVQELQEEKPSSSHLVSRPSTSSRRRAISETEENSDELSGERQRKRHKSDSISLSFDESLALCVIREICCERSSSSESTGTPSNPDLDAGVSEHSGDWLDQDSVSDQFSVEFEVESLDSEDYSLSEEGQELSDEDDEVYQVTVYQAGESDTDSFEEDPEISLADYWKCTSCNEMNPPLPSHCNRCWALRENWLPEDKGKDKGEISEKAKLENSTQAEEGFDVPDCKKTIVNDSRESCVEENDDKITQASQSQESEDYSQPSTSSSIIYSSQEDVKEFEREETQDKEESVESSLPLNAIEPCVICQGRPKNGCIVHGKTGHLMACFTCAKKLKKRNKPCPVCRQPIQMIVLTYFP

Substance: MDM2 (from UniProt Q00987 1-491)
- binding: binds
